Experimental findings from publication PMC12753876 are described below.

By UniProt entry, the sequences of proteins in these tests, tags left out. Where a name states a change or a piece, a line headed by the entry shows the natural chain unless it says otherwise.
UniProt Q8GYY1: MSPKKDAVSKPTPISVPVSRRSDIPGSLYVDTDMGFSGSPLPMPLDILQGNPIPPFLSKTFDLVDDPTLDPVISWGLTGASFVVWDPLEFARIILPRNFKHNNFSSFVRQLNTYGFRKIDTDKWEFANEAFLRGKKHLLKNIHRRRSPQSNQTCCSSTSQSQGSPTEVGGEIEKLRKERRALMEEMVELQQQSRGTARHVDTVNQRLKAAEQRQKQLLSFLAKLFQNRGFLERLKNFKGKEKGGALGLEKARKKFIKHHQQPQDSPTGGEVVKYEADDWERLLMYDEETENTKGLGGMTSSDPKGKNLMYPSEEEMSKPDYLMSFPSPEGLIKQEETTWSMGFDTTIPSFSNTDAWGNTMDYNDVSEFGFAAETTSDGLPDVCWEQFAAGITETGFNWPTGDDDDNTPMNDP

These are yes or no findings as the source states them, for the method shown. Binding calls can cover weak binding; strength is not graded here. Tags and fused reporters may be left off the sequences shown.

This experiment concerns the target HsFA3^E173R in pGBKT7 (BD) (Arabidopsis thaliana) (UniProt Q8GYY1). Briefly: two-hybrid; CRY1 as prey in pGADT7 (AD), HsF as bait in pGBKT7 (BD), co-transformed into yeast Y187; liquid beta-galactosidase assay with CPRG, Miller units; not detected (ND) if OD578 <0.01 after 3 h of color development.

B1: CRY1^(PHR K332E R335E) in pGADT7 (AD) (domain or fragment, UniProt Q43125 1-508)
chain: MSGSVSGCGSGGCSIVWFRRDLRVEDNPALAAAVRAGPVIALFVWAPEEEGHYHPGRVSRWWLKNSLAQLDSSLRSLGTCLITKRSTDSVASLLDVVKSTGASQIFFNHLYDPLSLVRDHRAKDVLTAQGIAVRSFNADLLYEPWEVTDELGRPFSMFAAFWERCLSMPYDPESPLLPPKKIISGDVSKCVADPLVFEDDSEKGSNALLARAWSPGWSNGDKALTTFINGPLLEYSKNRRKADSATTSFLSPHLHFGEVSVRKVFHLVRIKQVAWANEGNEAGEESVNLFLKSIGLREYSRYISFNHPYSHERPLLGHLKFFPWAVDENYFEAWEQGRTGYPLVDAGMRELWATGWLHDRIRVVVSSFFVKVLQLPWRWGMKYFWDTLLDADLESDALGWQYITGTLPDSREFDRIDNPQFEGYKFDPNGEYVRRWLPELSRLPTDWIHHPWNAPESVLQAAGIELGSNYPLPIVGLDEAKARLHEALSQMWQLEAASRAAIENGSEE
As for B1, the binding entry is recorded as “binds”.
